Reference: US20230002494A1 (SANYOU BIOPHARMACEUTICALS, published 2023)
These are yes or no findings as the source states them, for the method shown. Tags and fused reporters may be left off the sequences shown.

Target: B7-H3 (cell-expressed, Table 10)
Assay: FACS, over-expressing cells

Row | Binder | binding
1 | NB22D-21-huVH2 (Fc fusion, not shown: a dimerising Fc or GST, Humanized form of NB22D-21; also called humanized antibody NB22D-21-huVH2; D21-Vh2) EVQLVESGGGLVQPGGSLRLSCAASRTDSNINGMHWYRQAPGKGREWVGTIFIDGNTIVTDSVKGRFTISRDNAKNTLYLQMNTLRAEDTAVYYCAADVSGYGRAWGQGTTVTVSS | no binding
2 | NB22D-21-4 VHH-Fc chimeric antibody protein (Fc fusion, not shown: human IgG1 Fc fragment, its N-terminus linked to the C-terminus of the VHH) EVQLVESGGGLVQPGGSLRLSCAASRTDRNINTMHWYRQAPGKGREWVGTIFIDLNTIVTDSVKGRFTISRDNAKNTLYLQMNTLRAEDTAVYYCAADVSGYGRAWGQGTTVTVSS | no binding
